From PubChem BioAssay AID202 (DTP/NCI, 2004)
The list does not hold the whole screen: it gathers tests that were run many times, whatever their T/C, doses with no T/C, and many T/C values between a quarter and a half above the control. Further doses and runs are listed elsewhere. T/C gives the treated animals as a percentage of the vehicle group. Schedule codes are those of the source, taken here to give the interval after Q, in days (D) or hours (H), and the number of doses after X. Some entries were tested several times; the results are listed from low to high. Some T/C values are followed by the survivors on the day toxicity was checked, most often the fifth; where none is given, no animal had died by that day. Some entries give survivors of the animals treated and no T/C: the source files T/C as zero there, which appears to mark a toxic dose or a test without result, not a measured value. Survivors were counted at the toxicity check, usually on the fifth day, unless a day is given; later deaths do not show. Counts like (3×) stand for listed records that agree.

Tested on: HT29 xenograft, nude mice, s.c., tumor weight T/C%
Experiment: NCI In Vivo Anticancer Drug Screen. Data for tumor model HT29;CX-1 Human Adenocarcinoma (MER+) (subcutaneous) in NU/NU Swiss (nude) mice
Conditions: T/C endpoint: optimum tumor weight change, higher T/C = larger tumour
Procedure: The antitumor activity of compounds was measured in mice bearing transplantable tumors. Survival or tumor size were measured and the results are expressed as the measurement made in the treated group (T) divided by the measurement made in the vehicle treated control group (C). The tumor model used in this assay is HT29;CX-1 Human Adenocarcinoma (MER+) (subcutaneous) in NU/NU Swiss (nude) mice

[1] = dose: 200.0 mg/kg/injection, schedule: Q04DX003 (ip), vehicle: Klucel (hydroxypropylcellulose) (HPC)
[2] = dose: 400.0 mg/kg/injection, schedule: Q04DX003 (ip), vehicle: saline with Tween-80
[3] = dose: 100.0 mg/kg/injection, schedule: Q04DX003 (ip), vehicle: Klucel (hydroxypropylcellulose) (HPC)
[4] = dose: 400.0 mg/kg/injection, schedule: Q04DX003 (ip), vehicle: Klucel (hydroxypropylcellulose) (HPC)
[5] = dose: 400.0 mg/kg/injection, schedule: Q04DX003 (ip), vehicle: suspension in saline
[6] = dose: 800.0 mg/kg/injection, schedule: Q04DX003 (ip), vehicle: Klucel (hydroxypropylcellulose) (HPC)
[7] = dose: 100.0 mg/kg/injection, schedule: Q04DX003 (ip), vehicle: saline

CC(C)CCCCCCCCCCCCC(=O)NCC(=O)NC1C(O)C(O)C(Nc2ncnc3nc[nH]c23)OC1C(O)CO (stereo not drawn) was tested, and the T/C (dose: 1.5 mg/kg/injection, schedule: Q04DX003 (ip), vehicle: suspension in saline, evaluated on day 41) was 144 % of control, the survivor count (dose: 6.0 mg/kg/injection, schedule: Q04DX003 (ip), vehicle: suspension in saline) was 2 of 5 on day 41 and the survivor count (dose: 12.0 mg/kg/injection, schedule: Q04DX003 (ip), vehicle: suspension in saline) was 1 of 5 on day 41. For the same compound, the survivor count (dose: 24.0 mg/kg/injection, schedule: Q04DX003 (ip), vehicle: suspension in saline) was 0 of 5 on day 41 (2×) and 3 of 5 on day 41.
In the case of CCOC(=O)C1C2OC(=O)C(C(=O)C2CN(CCCl)CCCl)C1C1CC=C(CC2=CCC(C3C4C(=O)OC(C(CN(CCCl)CCCl)C4=O)C3C(=O)OCC)CC2)CC1 (stereo not drawn), the survivor count [1] is reported as 0 of 5 on day 36.
NC(=O)c1ccc[n+](Cc2c(Cl)cccc2Cl)c1 was tested, and the survivor count (dose: 96.0 mg/kg/injection, schedule: Q04DX003 (ip), vehicle: saline) was 1 of 5 on day 39 and the survivor count (dose: 192.0 mg/kg/injection, schedule: Q04DX003 (ip), vehicle: saline) was 0 of 5 on day 39.
With COc1cc([C@@H]2c3cc4c(c(O)c3C[C@H]3COC(=O)[C@@H]32)OCO4)cc(OC)c1OC the survivor count (dose: 20.0 mg/kg/injection, schedule: Q04DX003 (ip), vehicle: saline) was 2 of 5 on day 37.
With CCN(CC)CCCC(C)Nc1c2ccc(Cl)cc2nc2ccc(OC)cc12 (stereo not drawn) the T/C (dose: 100.0 mg/kg/injection, schedule: Q04DX003 (ip), vehicle: saline with Tween-80, evaluated on day 34) was 129 % of control and the survivor count [2] was 0 of 5 on day 36.
For CO[C@H]1C[C@](C)(O)Cc2cc3c(c(O)c21)C(=O)c1c(O)cc2c(c1C3=O)O[C@@H]1O[C@@]2(C)[C@H](O)[C@@H](N(C)C)[C@@H]1O, the survivor count (dose: 50.0 mg/kg/injection, schedule: Q04DX003 (ip), vehicle: other) was 0 of 5 on day 39 and the survivor count (dose: 100.0 mg/kg/injection, schedule: Q04DX003 (ip), vehicle: other) was 0 of 5 on day 39.
In the case of O=C/C(Cl)=C(/Cl)C(=O)O, the survivor count (dose: 25.0 mg/kg/injection, schedule: Q04DX003 (ip), vehicle: saline with Tween-80) is reported as 1 of 5 on day 35, the survivor count (dose: 50.0 mg/kg/injection, schedule: Q04DX003 (ip), vehicle: saline with Tween-80) is reported as 0 of 5 on day 35 and the survivor count (dose: 100.0 mg/kg/injection, schedule: Q04DX003 (ip), vehicle: saline with Tween-80) is reported as 0 of 5 on day 35.
In the case of O=C1N(Cl)C(=O)C(c2ccc(Cl)cc2)(c2ccc(Cl)cc2)N1Cl, the survivor count [2] is reported as 3 of 5 on day 35 and the survivor count (dose: 800.0 mg/kg/injection, schedule: Q04DX003 (ip), vehicle: saline with Tween-80) is reported as 0 of 5 on day 35.
For CCCC(=O)OCc1cc(=O)n(C)c2c3c4c(cc12)c(C)cc(=O)n4CO3, the survivor count [3] was 2 of 5 on day 35, the survivor count [1] was 0 of 5 on day 35 and the survivor count [4] was 0 of 5 on day 35.
For Nc1cc2[nH]cnc2c(=O)[nH]1, the survivor count (dose: 400.0 mg/kg/injection, schedule: Q04DX003 (ip), vehicle: saline) was 3 of 5 on day 35.
O=C[C@@H](CO)O[C@H](C=O)n1cnc2c(=O)[nH]cnc21 was tested, and the survivor count (dose: 800.0 mg/kg/injection, schedule: Q04DX003 (ip), vehicle: saline) was 0 of 5 on day 42.
For C=CC(=O)N1CN(C(=O)C=C)CN(C(=O)C=C)C1, the survivor count (dose: 12.5 mg/kg/injection, schedule: Q01DX003 (ip), vehicle: saline with Tween-80) was 0 of 5 on day 40 and the survivor count (dose: 25.0 mg/kg/injection, schedule: Q01DX003 (ip), vehicle: saline with Tween-80) was 0 of 5 on day 40.
For CC(CN1CC(=O)NC(=O)C1)N1CC(=O)NC(=O)C1 (stereo not drawn), the survivor count [5] was 2 of 5 on day 36.
With Cc1c(N)nc([C@H](CC(N)=O)NC[C@H](N)C(N)=O)nc1C(=O)N[C@H](C(=O)N[C@H](C)[C@@H](O)[C@H](C)C(=O)N[C@H](C(=O)NCCc1nc(-c2nc(C(=O)NCCC[S+](C)C)cs2)cs1)[C@@H](C)O)C(OC1OC(CO)C(O)C(O)C1OC1OC(CO)C(O)C(OC(N)=O)C1O)c1cnc[nH]1 (stereo partly drawn) the survivor count (dose: 7.5 mg/kg/injection, schedule: Q04DX003 (ip), vehicle: saline) was 2 of 5 on day 36, the T/C (dose: 15.0 mg/kg/injection, schedule: Q04DX003 (ip), vehicle: saline, evaluated on day 33) was 30 % of control and the T/C (dose: 15.0 mg/kg/injection, schedule: Q04DX003 (ip), vehicle: saline, evaluated on day 34) was 52 % of control. The T/C (dose: 15.0 mg/kg/injection, schedule: Q04DX003 (ip), vehicle: saline, evaluated on day 36) was 49 % of control, the T/C (dose: 15.0 mg/kg/injection, schedule: Q04DX003 (ip), vehicle: saline, evaluated on day 40) was 37 % of control and the survivor count (dose: 15.0 mg/kg/injection, schedule: Q04DX003 (ip), vehicle: saline) was 3 of 5 on day 36. For the same compound, the T/C (dose: 30.0 mg/kg/injection, schedule: Q04DX003 (ip), vehicle: saline, evaluated on day 33) was 22 % of control, the T/C (dose: 30.0 mg/kg/injection, schedule: Q04DX003 (ip), vehicle: saline, evaluated on day 34) was 28 and 35 % of control and the T/C (dose: 30.0 mg/kg/injection, schedule: Q04DX003 (ip), vehicle: saline, evaluated on day 36) was 48 % of control. For the same compound, the survivor count (dose: 30.0 mg/kg/injection, schedule: Q04DX003 (ip), vehicle: saline) was 2 of 5 on day 42, the survivor count (dose: 30.0 mg/kg/injection, schedule: Q04DX004 (ip), vehicle: saline) was 0 of 5 on day 35 and the survivor count (dose: 32.0 mg/kg/injection, schedule: Q04DX003 (ip), vehicle: saline) was 3 of 5 on day 36. For the same compound, the T/C (dose: 60.0 mg/kg/injection, schedule: Q04DX003 (ip), vehicle: saline, evaluated on day 34) was 3 [4 of 5 alive on day 36] and 48 % of control, the T/C (dose: 60.0 mg/kg/injection, schedule: Q04DX003 (ip), vehicle: saline, evaluated on day 36) was 13 % of control and the survivor count (dose: 60.0 mg/kg/injection, schedule: Q04DX003 (ip), vehicle: saline) was 2 of 5 on day 42 and 3 of 5 on day 35. The survivor count (dose: 60.0 mg/kg/injection, schedule: Q04DX004 (ip), vehicle: saline) was 0 of 5 on day 35 and the survivor count (dose: 64.0 mg/kg/injection, schedule: Q04DX003 (ip), vehicle: saline) was 2 of 5 on day 36.
For CN(C)N=Nc1cn[nH]c1C(N)=O, the survivor count [3] was 3 of 5 on day 40, the survivor count [1] was 1 of 5 on day 40 and the survivor count [4] was 0 of 5 on day 40. For the same compound, the survivor count [6] was 0 of 5 on day 40.
In the case of N=c1ccn2c(n1)OC1C(O)C(CO)OC12 (stereo not drawn), the survivor count [7] is reported as 3 of 5 on day 35.
In the case of N=C(N)SCc1c2ccccc2c(CSC(=N)N)c2ccccc12, the survivor count (dose: 100.0 mg/kg/injection, schedule: Q04DX003 (ip), vehicle: suspension in saline) is reported as 0 of 5 on day 40, the survivor count (dose: 200.0 mg/kg/injection, schedule: Q04DX003 (ip), vehicle: suspension in saline) is reported as 0 of 5 on day 40 and the survivor count [5] is reported as 0 of 5 on day 40.
O=c1[nH]cnc2n[nH]nc12 was tested, and the survivor count [6] was 3 of 5 on day 40.
In the case of Cc1c(CNc2ccc(C(=O)NC(CC(=O)O)C(=O)O)cc2)ccc2nc(N)nc(N)c12 (stereo not drawn), the survivor count (dose: 24.0 mg/kg/injection, schedule: Q04DX003 (ip), vehicle: saline with Tween-80) is reported as 3 of 5 on day 35.
For COc1cccc2c1C(=O)c1c(O)c3c(c(O)c1C2=O)C[C@@](O)(C(C)=O)C[C@@H]3OC1CC(N)C(O)C(C)O1 (stereo partly drawn), the survivor count (dose: 4.0 mg/kg/injection, schedule: Q04DX003 (ip), vehicle: saline) was 0 of 5 on day 40 and the survivor count (dose: 8.0 mg/kg/injection, schedule: Q04DX003 (ip), vehicle: saline) was 0 of 5 on day 40.
OCC1OC(n2cnc3cncnc32)C(O)C1O (stereo not drawn) was tested, and the survivor count (dose: 50.0 mg/kg/injection, schedule: Q04DX003 (ip), vehicle: saline) was 1 of 5 on day 39 and the survivor count [7] was 0 of 5 on day 39.
CC(=O)c1c(O)c(C)c(O)c2c1OC1=CC(=O)C(C(C)=O)C(=O)C12C (stereo not drawn) was tested, and the survivor count (dose: 400.0 mg/kg/injection, schedule: Q01DX003 (ip), vehicle: sodium bicarbonate) was 1 of 5 on day 40.
CS(=O)(=O)OCCN(CCOS(C)(=O)=O)c1ccc(C=Nc2ccc(-c3csc(COc4ccccc4)n3)cc2)cc1 was tested, and the survivor count [4] was 0 of 5 on day 40.
